In paper PMC10602909:
No constants are given. Whether binding was seen depends on the method and setting. Binding seen in cells or lysates may run through a third protein. Some binding calls cover weakened binding; strength is not graded here.

Chains of the proteins cited; added tags and fusions are not shown. Residues count along the entry.
UniProt Q5JVG8, residues 1-75: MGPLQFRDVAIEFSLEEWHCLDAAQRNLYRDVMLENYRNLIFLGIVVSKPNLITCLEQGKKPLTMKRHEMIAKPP
UniProt Q13263: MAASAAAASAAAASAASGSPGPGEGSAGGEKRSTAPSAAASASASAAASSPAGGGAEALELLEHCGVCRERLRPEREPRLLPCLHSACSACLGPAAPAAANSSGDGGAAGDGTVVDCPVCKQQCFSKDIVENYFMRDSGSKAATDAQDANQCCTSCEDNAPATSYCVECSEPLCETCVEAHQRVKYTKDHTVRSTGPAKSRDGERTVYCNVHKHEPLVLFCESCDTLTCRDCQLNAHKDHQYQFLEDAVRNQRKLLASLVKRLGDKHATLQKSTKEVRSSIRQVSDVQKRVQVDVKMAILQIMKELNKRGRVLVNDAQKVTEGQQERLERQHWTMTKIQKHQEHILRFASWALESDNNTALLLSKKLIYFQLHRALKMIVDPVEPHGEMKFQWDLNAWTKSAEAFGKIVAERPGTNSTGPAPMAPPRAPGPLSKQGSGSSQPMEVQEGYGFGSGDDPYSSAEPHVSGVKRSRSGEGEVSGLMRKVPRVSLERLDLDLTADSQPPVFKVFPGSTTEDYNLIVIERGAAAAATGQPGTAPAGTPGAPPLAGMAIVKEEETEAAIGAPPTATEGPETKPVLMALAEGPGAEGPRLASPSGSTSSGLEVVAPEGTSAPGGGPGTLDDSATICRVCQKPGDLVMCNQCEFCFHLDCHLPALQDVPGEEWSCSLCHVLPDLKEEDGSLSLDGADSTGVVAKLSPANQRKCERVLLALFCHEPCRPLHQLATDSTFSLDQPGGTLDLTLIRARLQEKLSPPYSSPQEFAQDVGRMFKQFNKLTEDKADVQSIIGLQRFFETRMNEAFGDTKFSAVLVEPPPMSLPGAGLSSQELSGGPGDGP

Target: FLAG-tagged ZNF506-KRAB domain (amino acids 1-75) (human) (UniProt Q5JVG8)
Assay: co-IP; 293T cells co-transfected with FLAG-ZNF506-KRAB, HA-SETDB1 and Myc-KAP1 plasmids, 48 h; extracts in RIPA buffer or IP buffer (20 mM Tris pH 7.5, 150 mM NaCl, 1% Triton X-100); protein A/G magnetic beads cross-linked with anti-HA, anti-FLAG or anti-Myc antibodies, 4°C overnight; washed three times with BC150 buffer; western blotting

binding: binds
Substance: Myc-tagged KAP1 (from UniProt Q13263 1-835)
